# Patent EP0411503B1, “Process for identifying and synthesizing binding sites of interacting proteins” (priority 1989, dated 1999)
# At least one peptide structure holds a part that was inferred or is arguable (an end, a ring closure or a residue). Where no end group is shown, it is not given here.
# Key:
# IL-1β [205-216] = assay: Affinity column with immobilized CGIL, elution of target peptide; type: binding, human; conditions: 0.1 M TRIS pH 7.0 as equilibration buffer
# Interleukin 1β = assay: Affinity column with immobilized CGIL, elution of target protein; type: binding, human; conditions: crude mixture containing recombinant IL-1β on the CGIL column
# [1] = Control affinity column free of CGIL (non-specific binding to support); conditions: elution with TRIS buffer; column of same size, differently derivatized
# ET [16-32] = assay: Affinity column with immobilized CGET, elution of target peptide; type: binding; conditions: column equilibrated with 0.1 M TRIS pH 7.0
# enzyme chymotrypsin = assay: Degradation of ET [16-32] by chymotrypsin with and without CGET; type: biochemical; conditions: both peptides 50 µg/ml, compared with ET [16-32] alone
sequence,measurement,setting,value
"HLLFPIIIAASL [CGIL, HLLFPIIIAASL]",recognition of the complementary peptides of the pair,IL-1β [205-216],strong enough to need 0.1 M HAc pH 2.5 for eluting the IL-1β [205-216]
same,recognition of the protein,Interleukin 1β,strong enough to need the replacement of the eluent solution by 0.1 M HAc to elute the protein
"KQYPKKKMEKRF [IL-1β [205-216], KQYPKKKMEKRF]",delay or retention on column free of the complementary peptide,[1],neither the peptide nor the protein are delayed or retained
"RKFLAGLRARRLKR [CGET, RKFLAGLRARRLKR]",elution of the peptide ET [16-32] from the column,ET [16-32],can only be achieved by replacing the eluent with 0.1 M HAc
same,ET [16-32] degradation rate by the enzyme chymotrypsin,enzyme chymotrypsin,dramatically decrease
